± gives the standard error. Many of these values have a large error.
B1: glmS ribozyme (parent)
chain: AUAAAAGCGCCAGAACUACAGAAAUGUAGUUGACGAGGAGGAGGUUUAUCGAAUUUUCGGCGGAUGCCUCCAAA

Variants of: B1
Assay: self-cleavage kobs at 40 uM GlcN6P; higher = faster cleavage; RNA array
Conditions: with glucosamine-6-phosphate
Procedure, shortened: (§1)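 In situ transcription by E. coli RNA polymerase produced barcoded ribozyme variants on sequenced MiSeq chips, and a hybridised Cy3 probe tracked them at 37 °C. Glucosamine-6-phosphate was flowed in at 40 μM to 10 mM in HEPES/KCl/Mg(OAc)2 buffer. kcat and KM were taken from weighted Michaelis–Menten fits of kobs values from exponential decay fits.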

Variant	self-cleavage kobs at 40 uM GlcN6P [s⁻¹]
C11G C50G C68G C71U	4.41e-05 ± 2.3e-05
C11U A15C	1.58e-05 ± 9e-06
C11U C50A C70U	4.94e-05 ± 2.5e-05
C11U G29A C70A	4.75e-05 ± 2.5e-05
C11U U30C C50U C67A	7.47e-05 ± 4.5e-05
A12C U46A	2.04e-05 ± 1.2e-05
A12G A42U U69A	2.49e-05 ± 1.6e-05
A12G C58A C70G	3.14e-05 ± 1.9e-05
A12G C71U	< 1e-05
A12G U45A C71U	1.65e-05 ± 1.4e-05
A12G U47G	1.37e-05 ± 1.3e-05
A12U C58G	2.54e-05 ± 1.3e-05
A12U G13A A48G U56C U65A C67A C71G	3.48e-05 ± 1.9e-05
G13A A53G	2.34e-05 ± 1.5e-05
G13A G32U G38C U69G	3.18e-05 ± 2e-05
G13C G51U C68G	2.39e-05 ± 2.1e-05
G13U A39G U56G	4.04e-05 ± 2.7e-05
G13U U55C	1.69e-05 ± 1.1e-05
A14C G32A G38A C50U	3.27e-05 ± 3e-05

Variant	self-cleavage kobs at 40 uM GlcN6P [s⁻¹]
A14C G59U C70G	4.05e-05 ± 2.5e-05
A14C U47A A52G G66C U69G C70A	3.82e-05 ± 2.3e-05
A14U C16G	1.99e-05 ± 1e-05
A14U G32U	1.03e-05 ± 9e-06
A14U G35U C50U C58G G62U C71G	6.61e-05 ± 5e-05
A14U G40C U46C A53G C71G	1.65e-05 ± 1.6e-05
A15G U30G G40U	1.51e-05 ± 1.5e-05
A15U A48G U55G C68G C70A	4.59e-05 ± 3.6e-05
A15U C34G C50A A52G C71U	2.63e-05 ± 2e-05
A15U G32A	1.31e-05 ± 1.2e-05
A15U U46G	1.63e-05 ± 1.2e-05
A15U U57G C58U C70A	2.88e-05 ± 2.2e-05
C16A U69G	1.81e-05 ± 1.2e-05
C16G C34G A39U G66C C70G	3.11e-05 ± 2.5e-05
C16G C50G	3e-05 ± 2.1e-05
C16U A53G U69G	4.11e-05 ± 3e-05
U17A A18C C19A A20G A52G U57G C67A	5.02e-05 ± 2.6e-05
G29C G60A U65G C68G	5.19e-05 ± 3.6e-05

Variants of: B1
Assay: self-cleavage kobs at 10000 uM GlcN6P; higher = faster cleavage; RNA array
Conditions: with glucosamine-6-phosphate
Procedure, shortened: as §1

Variant	self-cleavage kobs at 10000 uM GlcN6P [s⁻¹]
C11U C50A C70U	2.36e-05 ± 2.3e-05
C11U U30C C50U C67A	2.39e-05 ± 1.7e-05
A12U G13A A48G U56C U65A C67A C71G	2.34e-05 ± 1.5e-05
A14C U47A A52G G66C U69G C70A	3.5e-05 ± 1.8e-05
C16A U69G	0.00306 ± 0.0017
C16G C34G A39U G66C C70G	2.68e-05 ± 2.1e-05

2 successive records from above, quoted:
Variant	self-cleavage kobs at 10000 uM GlcN6P [s⁻¹]
C16A U69G	0.00306 ± 0.0017
C16G C34G A39U G66C C70G	2.68e-05 ± 2.1e-05

Variants of: B1
Assay: self-cleavage kobs at 640 uM GlcN6P; higher = faster cleavage; RNA array
Conditions: with glucosamine-6-phosphate
Procedure, shortened: as §1

Variant	self-cleavage kobs at 640 uM GlcN6P [s⁻¹]
C11U G29A C70A	4.26e-05 ± 3e-05
C16G C50G	0.000637 ± 0.00033

Variants of: B1
Assay: self-cleavage kobs at 2500 uM GlcN6P; higher = faster cleavage; RNA array
Conditions: with glucosamine-6-phosphate
Procedure, shortened: as §1

Variant	self-cleavage kobs at 2500 uM GlcN6P [s⁻¹]
G13C G51U C68G	0.000628 ± 0.00063
A15U A48G U55G C68G C70A	3.27e-05 ± 2.9e-05

Variants of: B1
Assay: self-cleavage kobs at 160 uM GlcN6P; higher = faster cleavage; RNA array
Conditions: with glucosamine-6-phosphate
Procedure, shortened: as §1

Variant	self-cleavage kobs at 160 uM GlcN6P [s⁻¹]
C16G C50G	0.000157 ± 0.00015

— the supplement of paper PMC7125110
